PubChem BioAssay AID1159578, Peter MacCallum Cancer Centre, 2015

Test: 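Knock-downs that alter how fast lymphatic endothelial cells migrate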 (primary screen)
Cell system: human lymphatic endothelial cells
Knock-down reagent: siRNA pool against human genes, 40 nM
Time to read-out: 48 h after transfection
Measured: 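Cells stained with dye and imaged after a scratch; covered wound area and nuclei counted, duplicates averaged, migration set against mock wells and turned into a robust z-score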
Scale: migration robust z-score: higher = faster migration into the scratch; migration relative to mock: higher = more scratch area covered than mock; nuclei per well: higher = more cells in the well
Hit rule: 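Pools averaging fewer than 3300 nuclei are never called; remaining pools count as changed when migration robust z lies outside -2 to 2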
Meaning of the calls: active = migration changed; inactive = no migration change, or too few cells
Shown is an unselected part of about 18,000 reagents tested. About 1,030 of all reagents (5.7%) count as active. 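Inactive calls also include pools with fewer than 3300 nuclei, whose migration was not assessed.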 Raw values are not corrected between plates.

no.	gene symbol	migration robust z-score	migration class with cell-count check	migration relative to mock	nuclei per well, duplicate mean	activity call
1	EPM2AIP1 (EPM2A interacting protein 1)	-0.48	migration z between -2 and 2; enough cells	0.76	4848	inactive
2	TAX1BP3 (Tax1 binding protein 3)	-1.53	migration z between -2 and 2; enough cells	0.49	5679	inactive
3	BZW1 (basic leucine zipper and W2 domains 1)	-0.78	migration z between -2 and 2; enough cells	0.66	3372	inactive
4	GAN (gigaxonin)	-1.85	migration z between -2 and 2; enough cells	0.41	5148	inactive
5	IGDCC3 (immunoglobulin superfamily DCC subclass member 3)	-0.08	migration z between -2 and 2; enough cells	0.86	5799	inactive
6	MAN1C1 (mannosidase alpha class 1C member 1)	-0.68	migration z between -2 and 2; enough cells	0.68	5370	inactive
7	CARD10 (caspase recruitment domain family member 10)	-2.36	migration z below -2; enough cells	0.35	3589	active
8	ARSL (arylsulfatase L)	1.35	migration z between -2 and 2; enough cells	1.06	5136	inactive
9	KCNK10 (potassium two pore domain channel subfamily K member 10)	-0.1	migration z between -2 and 2; enough cells	0.78	4191	inactive
10	TAB1 (TGF-beta activated kinase 1 (MAP3K7) binding protein 1)	0.42	migration z between -2 and 2; enough cells	0.88	5074	inactive
11	POU4F1 (POU class 4 homeobox 1)	0.26	migration z between -2 and 2; enough cells	0.86	3975	inactive
12	TSSC4 (tumor suppressing subtransferable candidate 4)	-0.21	migration z between -2 and 2; enough cells	0.83	5851	inactive
13	RUNDC3B (RUN domain containing 3B)	0.15	migration z between -2 and 2; enough cells	0.92	5792	inactive
14	MCRIP1 (MAPK regulated corepressor interacting protein 1)	0.04	migration z between -2 and 2; enough cells	0.9	5872	inactive
15	GJB1 (gap junction protein beta 1)	-0.18	migration z between -2 and 2; enough cells	0.77	5400	inactive
16	LPXN (leupaxin)	0.32	migration z between -2 and 2; enough cells	0.86	6402	inactive
17	MECR (mitochondrial trans-2-enoyl-CoA reductase)	0	migration z between -2 and 2; enough cells	0.88	7377	inactive
18	BAZ1B (bromodomain adjacent to zinc finger domain 1B)	1.46	migration z between -2 and 2; enough cells	1.08	6669	inactive
19	TM7SF3 (transmembrane 7 superfamily member 3)	1.36	migration z between -2 and 2; enough cells	1.25	6406	inactive
20	GRHL3 (grainyhead like transcription factor 3)	1.22	migration z between -2 and 2; enough cells	1.2	5746	inactive
21	CERS5 (ceramide synthase 5)	-0.5	migration z between -2 and 2; enough cells	0.76	4274	inactive
22	OR2S2 (olfactory receptor family 2 subfamily S member 2)	0.02	migration z between -2 and 2; enough cells	0.89	6276	inactive
23	NOTCH3 (notch receptor 3)	-0.16	migration z between -2 and 2; enough cells	0.78	5322	inactive
24	HJURP (Holliday junction recognition protein)	0.63	migration z between -2 and 2; enough cells	1.05	6408	inactive
25	WDR24 (WD repeat domain 24)	-0.34	migration z between -2 and 2; enough cells	0.74	4882	inactive
26	TAS2R4 (taste 2 receptor member 4)	1.5	migration z between -2 and 2; enough cells	1.27	6513	inactive
27	SERINC2 (serine incorporator 2)	1.31	migration z between -2 and 2; enough cells	1.23	5337	inactive
28	TEK (TEK receptor tyrosine kinase)	-2.62	migration z below -2; enough cells	0.3	3481	active
29	NPY4R (neuropeptide Y receptor Y4)	-0.42	migration z between -2 and 2; enough cells	0.72	5576	inactive
30	ADGRE5 (adhesion G protein-coupled receptor E5)	-1.43	migration z between -2 and 2; enough cells	0.53	6292	inactive
31	GSTO1 (glutathione S-transferase omega 1)	0.08	migration z between -2 and 2; enough cells	0.82	4488	inactive
32	CD36 (CD36 molecule (CD36 blood group))	0.31	migration z between -2 and 2; enough cells	0.86	4542	inactive
33	OPRD1 (opioid receptor delta 1)	-0.18	migration z between -2 and 2; enough cells	0.77	4340	inactive
34	FAM50B (family with sequence similarity 50 member B)	-0.36	migration z between -2 and 2; enough cells	0.79	4750	inactive
35	PRY (PTPN13 like Y-linked)	-4.31	under 3300 nuclei; migration not judged	-0.24	2124	inactive
36	BSDC1 (BSD domain containing 1)	-1.03	migration z between -2 and 2; enough cells	0.62	5840	inactive
37	GRK6 (G protein-coupled receptor kinase 6)	-3.21	under 3300 nuclei; migration not judged	0.18	3298	inactive
38	RAB8B (RAB8B, member RAS oncogene family)	-0.2	migration z between -2 and 2; enough cells	0.84	6234	inactive
39	STON1-GTF2A1L (STON1-GTF2A1L readthrough)	1.48	migration z between -2 and 2; enough cells	1.27	5332	inactive
40	CFAP43 (cilia and flagella associated protein 43)	0.22	migration z between -2 and 2; enough cells	0.95	5160	inactive
41	NTN5 (netrin 5)	1.27	migration z between -2 and 2; enough cells	1.21	5479	inactive
42	MYDGF (myeloid derived growth factor)	-1.56	migration z between -2 and 2; enough cells	0.5	3414	inactive
43	ABCC5 (ATP binding cassette subfamily C member 5)	1.17	migration z between -2 and 2; enough cells	1.03	5562	inactive
44	FBXO41 (F-box protein 41)	-0.7	migration z between -2 and 2; enough cells	0.67	5668	inactive
45	FBXO30 (F-box protein 30)	-0.68	migration z between -2 and 2; enough cells	0.68	5417	inactive
46	PSMB6 (proteasome 20S subunit beta 6)	-0.36	migration z between -2 and 2; enough cells	0.73	3934	inactive
47	RNF8 (ring finger protein 8)	-0.34	migration z between -2 and 2; enough cells	0.74	4672	inactive
48	CYP46A1 (cytochrome P450 family 46 subfamily A member 1)	-0.36	migration z between -2 and 2; enough cells	0.74	4672	inactive
49	KCNK13 (potassium two pore domain channel subfamily K member 13)	-0.8	migration z between -2 and 2; enough cells	0.65	4839	inactive
50	ASMT (acetylserotonin O-methyltransferase)	-0.47	migration z between -2 and 2; enough cells	0.72	5069	inactive
51	ADGRB2 (adhesion G protein-coupled receptor B2)	-0.52	migration z between -2 and 2; enough cells	0.7	6028	inactive
52	KIF13A (kinesin family member 13A)	0.46	migration z between -2 and 2; enough cells	0.9	6192	inactive
53	MRPS21 (mitochondrial ribosomal protein S21)	-0.21	migration z between -2 and 2; enough cells	0.82	5493	inactive
54	MMUT (methylmalonyl-CoA mutase)	1.01	migration z between -2 and 2; enough cells	1	5892	inactive
55	MGME1 (mitochondrial genome maintenance exonuclease 1)	-0.78	migration z between -2 and 2; enough cells	0.68	4904	inactive
56	CYP3A4 (cytochrome P450 family 3 subfamily A member 4)	0.08	migration z between -2 and 2; enough cells	0.82	4688	inactive
57	DOP1B (DOP1 leucine zipper like protein B)	-0.4	migration z between -2 and 2; enough cells	0.78	5988	inactive

A stretch of the results above:
no.	gene symbol	migration robust z-score	migration class with cell-count check	migration relative to mock	nuclei per well, duplicate mean	activity call
22	OR2S2 (olfactory receptor family 2 subfamily S member 2)	0.02	migration z between -2 and 2; enough cells	0.89	6276	inactive
23	NOTCH3 (notch receptor 3)	-0.16	migration z between -2 and 2; enough cells	0.78	5322	inactive
